Data as given in PubChem BioAssay AID652272 (Drosophila RNAi Screening Center, 2013)

- Screen: 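Genes whose knock-down decreases or increases Hedgehog reporter output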 (primary screen)
- System: Drosophila clone 8 (Cl8) cells
- Knock-down reagent: long dsRNA against Drosophila genes
- Read-out: 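Plate reader light from a firefly reporter under a ptc promoter fragment that responds to Hedgehog, with Renilla light as transfection reference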
- Scale: firefly Hh reporter signal: higher = more ptc reporter light; Renilla reference signal: higher = more Renilla control light
- Rule for the call: 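Hit when the z-score averaged over two replicates is under -2 or over +3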
- Calls: active = hit: reporter lowered or raised; inactive = not a hit
The screen tested about 21,000 reagents; below is a random part of those with a known target gene and a result. Over the whole deposit, 503 (2.4%) are marked active. 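Raw plate light values, not normalised; calls rest on replicate z-scores that were not deposited; hits include reporter decreases as well as increases.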 A plus sign joins genes that one reagent is predicted to hit. Not stated in the record: the amount of reagent, the time to read-out.

Gene,dsRNA,"firefly Hh reporter signal, replicate 1","firefly Hh reporter signal, replicate 2","firefly Hh reporter signal, replicate 3","Renilla reference signal, replicate 1","Renilla reference signal, replicate 2",call
Best3,DRSC09880,66146,,,3366,2224,inactive
CR12842,DRSC06188,75244,44692,,1592,3414,inactive
CG13437,DRSC06397,69376,51808,,2464,3906,inactive
Rad9,DRSC11263,88130,60281,,3138,2769,inactive
aus,DRSC13471,50123,1.54e5,,11220,4551,inactive
aus,DRSC13473,57627,1.97e5,,13817,5684,inactive
aus,DRSC15157,72841,92081,,3377,3814,inactive
hog,DRSC19057,4.66e5,2.01e5,,25906,4922,inactive
numb,DRSC03584,60758,81450,,2618,3282,inactive
Sgt1,DRSC16519,60981,90096,,2204,2788,inactive
CG11601,DRSC00318,1.02e5,60112,,2320,1362,inactive
CG31928,DRSC00293,88624,1.10e5,,4256,4487,inactive
CG32374,DRSC10986,76611,58528,,6422,4306,inactive
Strica,DRSC04920,1.03e5,78993,,1700,7085,inactive
Pex5,DRSC18552,58241,1.54e5,,2727,7808,inactive
Argk1,DRSC08959,6.59e5,2.00e5,1.34e5,5524,5235,inactive
Argk1,DRSC09668,73144,70330,,7769,355,inactive
Argk1,DRSC10460,1.03e5,64563,,4000,2584,inactive
Aef1,DRSC11605,90688,63296,,3232,1787,inactive
CG14054,DRSC17909,1.07e5,2.81e5,,4432,10480,inactive
Oatp58Dc,DRSC04363,45776,61991,,2163,2212,inactive
Lztr1,DRSC18176,69987,2.23e5,,2139,9472,inactive
Lztr1,DRSC18647,76562,1.76e5,,2497,7232,inactive
Flacc,DRSC20040,1.19e5,88116,,3168,2668,inactive
kri,DRSC10515,1.13e5,1.01e5,,6188,4205,inactive
eas,DRSC20329,82659,2.10e5,,2621,7760,inactive
comr,DRSC04138,80792,58467,,2390,5900,inactive
CG17931 + CG42446,DRSC15293,1.08e5,1.22e5,,1907,3237,inactive
Dlic,DRSC19824,1.15e5,82934,,2795,2000,inactive
CG10184,DRSC14204,97200,1.11e5,,3840,4141,inactive
Grd,DRSC11178,1.04e5,,,3696,2982,inactive
CG34112,DRSC12235,89283,95889,,3216,5794,inactive
kkv,DRSC12315,98151,96088,,3984,3746,inactive

4 of these entries in another layout:
{"Gene":"Pex5","dsRNA":"DRSC18552","firefly Hh reporter signal, replicate 1":58241,"firefly Hh reporter signal, replicate 2":1.54e5,"Renilla reference signal, replicate 1":2727,"Renilla reference signal, replicate 2":7808,"call":"inactive"}
{"Gene":"Argk1","dsRNA":"DRSC08959","firefly Hh reporter signal, replicate 1":6.59e5,"firefly Hh reporter signal, replicate 2":2.00e5,"firefly Hh reporter signal, replicate 3":1.34e5,"Renilla reference signal, replicate 1":5524,"Renilla reference signal, replicate 2":5235,"call":"inactive"}
{"Gene":"Argk1","dsRNA":"DRSC09668","firefly Hh reporter signal, replicate 1":73144,"firefly Hh reporter signal, replicate 2":70330,"Renilla reference signal, replicate 1":7769,"Renilla reference signal, replicate 2":355,"call":"inactive"}
{"Gene":"Argk1","dsRNA":"DRSC10460","firefly Hh reporter signal, replicate 1":1.03e5,"firefly Hh reporter signal, replicate 2":64563,"Renilla reference signal, replicate 1":4000,"Renilla reference signal, replicate 2":2584,"call":"inactive"}

Further records:
Gene,dsRNA,"firefly Hh reporter signal, replicate 1","firefly Hh reporter signal, replicate 2","firefly Hh reporter signal, replicate 3","Renilla reference signal, replicate 1","Renilla reference signal, replicate 2",call
CAH3,DRSC17776,85157,2.36e5,,2806,8624,inactive
Mst27D,DRSC00967,7.20e5,1.84e5,,35475,8308,inactive
mRpL21,DRSC11100,78272,1.11e5,,2699,2825,inactive
CG3222,DRSC10355,23068,48057,63782,4384,4714,inactive
crb,DRSC16927,68714,35175,,3680,1879,inactive
CG13659,DRSC14660,5.43e5,1.31e5,,27891,3735,inactive
tous,DRSC04464,1.08e5,91255,,4160,3894,inactive
CG3528,DRSC00611,1.21e5,92293,,2457,1986,inactive
DCTN4-p62,DRSC06101,68917,69453,,2037,2122,inactive
Mnat9,DRSC14325,95852,1.46e5,,3451,6551,inactive
Jheh2,DRSC06530,1.14e5,44391,,2832,2400,inactive
dpr17,DRSC12885,50176,2.08e5,,10388,4561,inactive
dpr17,DRSC14957,25571,59723,,1291,2140,inactive
dpr17,DRSC14958,51948,1.49e5,,1485,4155,inactive
CG5890,DRSC15909,5.32e5,1.18e5,,27220,3364,inactive
CG10803,DRSC17763,1.86e5,1.02e5,,3931,3367,inactive
mib2,DRSC02623,73116,34112,,3244,1691,inactive
L (retired record),DRSC05966,66626,48080,,2035,4416,inactive
L (retired record),DRSC05967,52068,23319,,1419,2251,inactive
CG14722,DRSC14944,1.25e5,86480,,5472,3957,inactive
Ggamma1,DRSC07435,1.06e5,70044,,3645,2592,inactive
Rab32,DRSC05146,1.05e5,2.28e5,,2841,9364,inactive
Rab32,DRSC07522,73190,62517,,3504,1866,inactive
CG1542,DRSC15035,62449,37241,,1859,1753,inactive
Rox8,DRSC16829,5.38e5,69656,,26165,2145,inactive
CG14417,DRSC18638,69293,2.01e5,,2397,8918,inactive
CG31269,DRSC15744,67739,89489,,1250,2232,inactive
CG18213,DRSC15316,81925,87866,,2277,2178,inactive
Dh44-R2,DRSC06141,1.10e5,59660,,2976,4315,inactive
Dh44-R2,DRSC06281,1.36e5,42068,,3472,4029,inactive
OtopLc,DRSC18082,67607,2.19e5,,2304,8187,inactive
OtopLc,DRSC18083,52448,1.84e5,,1777,7757,inactive
OtopLc,DRSC18132,64266,1.56e5,,1991,6339,inactive
VGlut,DRSC00733,1.57e5,7.15e5,1.41e5,3138,5110,inactive
CG7856,DRSC04896,1.11e5,1.17e5,,2394,8499,inactive
CG17290,DRSC06662,91609,44941,,2553,3713,inactive
Dus3,DRSC02059,77814,69132,,2128,5830,inactive
unk,DRSC17093,1.83e5,1.18e5,,7338,4425,inactive
Sumo,DRSC03611,35450,38950,,2028,1578,inactive
CG9304,DRSC04538,94714,50420,,2188,4107,inactive
